No constants are given. Whether binding was seen depends on the method and setting. In cells and extracts the contact can be indirect. Some results given as binding are weak or reduced against the parent protein; the word gives no strength.
What was measured:
[1] = target: β-catenin (human (endogenous in BT549)) (UniProt P35222); test: co-IP; IP-WB from lysates of BT549-derived non-CSC (also with ectopic lnc408 or sh-CBY1) and CSC (also with ectopic CBY1 or sh-lnc408); antibody on Protein G Dynabeads; which antibody precipitated is not told
[2] = target: β-catenin (human (endogenous in HEK293T)) (UniProt P35222); test: co-IP; IP-WB from lysates (lysis buffer with Triton X-100) of HEK293T cells transfected with CBY1 WT or S20A; antibody on Protein G Dynabeads, overnight, five washes; antibodies against 14-3-3, β-catenin and CBY1; which one precipitated is not told

The chains behind the UniProt entries cited, without tags or fusion partners.
UniProt P35222: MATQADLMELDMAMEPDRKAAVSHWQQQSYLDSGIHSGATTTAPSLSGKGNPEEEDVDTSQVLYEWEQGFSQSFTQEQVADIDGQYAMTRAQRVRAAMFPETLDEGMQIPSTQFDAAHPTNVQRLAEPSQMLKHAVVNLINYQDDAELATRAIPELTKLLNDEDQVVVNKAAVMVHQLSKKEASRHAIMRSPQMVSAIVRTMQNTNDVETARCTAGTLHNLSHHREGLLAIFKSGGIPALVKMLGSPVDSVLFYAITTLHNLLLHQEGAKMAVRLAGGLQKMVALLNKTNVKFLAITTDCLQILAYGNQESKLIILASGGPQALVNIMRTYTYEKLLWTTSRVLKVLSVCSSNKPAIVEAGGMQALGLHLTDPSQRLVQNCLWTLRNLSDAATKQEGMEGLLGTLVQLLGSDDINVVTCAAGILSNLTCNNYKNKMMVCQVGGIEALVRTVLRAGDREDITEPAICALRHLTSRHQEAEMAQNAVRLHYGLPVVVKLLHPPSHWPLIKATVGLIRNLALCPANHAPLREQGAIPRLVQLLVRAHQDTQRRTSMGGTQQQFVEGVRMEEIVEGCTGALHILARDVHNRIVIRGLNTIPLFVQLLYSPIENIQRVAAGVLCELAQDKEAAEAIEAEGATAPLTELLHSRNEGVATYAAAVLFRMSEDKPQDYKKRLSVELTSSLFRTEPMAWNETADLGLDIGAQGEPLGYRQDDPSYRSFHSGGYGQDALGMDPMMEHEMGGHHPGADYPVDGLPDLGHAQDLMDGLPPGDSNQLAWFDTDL

binding [1]	binding [2]	Substance
binds		CBY1 (chibby 1) (from UniProt Q9Y3M2 1-126)
binds		ectopic CBY1 (oeCBY1) (from UniProt Q9Y3M2 1-126)
	binds	wild-type CBY1 (chibby 1) (from UniProt Q9Y3M2 1-126)
